Drawing on patent US20250236666A1 (UNIVERSITE DE LILLE, published 2025), this text covers binding for one molecule.

For assay [1], the target named is T1, Peptide 3 (Pore Forming 2) [biot]-[C6spacer]-… (human).
T1 sequence (peptide, biotin and C6 spacer at the N-terminus ([biot]-[C6spacer]-)): DGPANYNVDLPFMYS
Nature of the assay: dose-response ELISA on biotinylated peptide.

Assay [2] has the same target. Nature of the assay: specificity ELISA at 75 µg/mL-500 nM, target peptide against irrelevant peptide. For orientation: In an ELISA, binding on a coated surface is turned into a signal by an enzyme label.

No constants are given. Whether binding was seen depends on the method and setting. Some entries that bind do so weakly or less than the wild type. No end group written: not given here. *: point of attachment. Biotin = O=C1N[C@H]2[C@H](CS[C@H]2CCCCC(=O)*)N1; C6spacer = C6 spacer

B1: Monoclonal antibody P3-R4-E11 (antibody, human IgG1, kappa, V domains shown)
VH: EVQLVESGGSLVKPGGSLRLSCAASGFTFSNSGMNWVRQAPGKGLEWISGISGSSRYIGYADFVKGRFTISRDNAKNSLYLQMNSLRAEDTAVYYCVRSNYGGMDVWGRGTLVTVSS
VL: QSVLTQPASVSGSPGQSITISCAGTSSDVGGYGYVSWYQQHPGKAPKLMIYYDSYRPSGVSNRFSGSKSGNTASLTISGLQAEDEADYYCSSYTSQSTRVFGGGTKLEIKR
notes: scFv from phage display subcloned into Human IgG1 format, expressed in HEK293T
Consider B1, for which the binding entry in assay [1] and in assay [2] was “binds” each time.
